Measured values: PMC8237857
Results are given in words; binding and its absence hold for the method and conditions named. Binding seen in cells or lysates may run through a third protein. Some entries that bind do so weakly or less than the wild type. Sequences can lack the tags named with a protein.

Target: T1, Flag-SNAPIN (Snapin full length in PCDH-3xFlag-3xHA-EF1-puromycin vector) (UniProt Q9Z266)
T1 sequence: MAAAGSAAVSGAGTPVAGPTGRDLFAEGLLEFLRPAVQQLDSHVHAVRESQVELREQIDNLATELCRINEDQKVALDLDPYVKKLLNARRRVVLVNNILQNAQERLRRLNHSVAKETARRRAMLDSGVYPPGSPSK
Test: co-IP; Flag-SNAPIN in Min6 lysate (1% Triton X-100, 50 mM Tris-HCl pH 7.4, 150 mM NaCl, 1 mM EDTA, 1% sodium deoxycholate) on Flag beads, eluted with Flag peptide; Western blotting

binding: binds
B1: Bloc1s1 (protein, UniProt O55102 1-125)
chain: MLSRLLKEHQAKQNERKELQEKRRREAIAAATCLTEALVDHLNVGVAQAYMNQRKLDHEVKTLQVQAAQFAKQTGQWIGMVENFNQALKEIGDVENWARSIELDMRTIATALEYVYKGQLQSAPS
